# Measurements: PubChem BioAssay AID540276 (National Center for Advancing Translational Sciences (NCATS), 2011)
# In all, about 300,000 compounds went through this assay and about 5,400 (1.8%) were called active. The inconclusive results got no clear call from the source; some entries with a clear call stand among them for comparison. The call rests on the fitted dose curve; tested in HEK293 cells. Where the call is inconclusive, the potency comes from a doubtful curve fit.
# Experiment: qHTS for inhibitors of binding or entry into cells for Marburg Virus
# Conditions: Marburg virus pseudotyped entry inhibition, cell reporter; series mostly up to 37.8 µM
# Potency means the concentration at half of the fitted maximal effect.
row,Compound,Potency
1,O=C(NCc1n[nH]c(=O)c2ccccc12)C1CC(=O)N(c2ccccc2)C1 (configuration not stated),"inconclusive: 0.398 µM [inhibitor, partial curve, poor fit]"
2,Cn1c(CSCc2ccc(Cl)cc2)nnc1SCC(=O)Nc1nc2ccccc2s1,inactive
3,COCCNC(=S)N/N=C/c1c2ccccc2cc2ccccc12,"inconclusive: 8.91 µM [inhibitor, partial curve, poor fit]"
4,O=C(Nc1ccc(Br)cc1)c1cc(-c2cccs2)on1,"inconclusive: 35.5 µM [inhibitor, single point]"
5,CCC(Cc1ccccc1)NCc1c(C(=O)O)c(C)n(Cc2ccccc2)c1C (configuration not stated),"inconclusive: 22.4 µM [inhibitor, partial curve, poor fit]"
6,O=C(C[N+]12CCN(CC1)CC2)NCCc1ccc(Cl)cc1Cl,inactive
7,CC(C)(C)c1ccc(COC(=O)Nc2ccc(F)cc2)cc1,"inconclusive: 20 µM [activator, single point]"
8,O=C(Nc1ccc(Cl)c(S(=O)(=O)N2CCOCC2)c1)c1ccccn1,"inconclusive: 5.62 µM [activator, single point]"
9,Cc1ccc2c(N)c(C(=O)N(c3ccccc3)c3ccccc3)sc2n1,"inconclusive: 5.8 µM [inhibitor, partial curve, poor fit]"
10,Oc1c(Br)cc(C=Nc2ccc3nc(-c4ccccc4)[nH]c3c2)c(O)c1Br,"inconclusive: 2.24 µM [activator, single point]"
11,CCS(=O)(=O)Nc1ccc(-c2cc(-c3ccccc3)c3cc(C)ccc3n2)cc1,"inconclusive: 14.1 µM [inhibitor, partial curve, poor fit]"
12,CC(C)(C)c1ccc(/C=N/OCC(=O)NCc2ccccc2)cc1,"inconclusive: 22.4 µM [inhibitor, single point]"
13,Cc1ccc(CNC(=O)C2CCCN(Cc3cnn(-c4ccccc4)c3-n3cccc3)C2)cc1 (configuration not stated),"inconclusive: 16.4 µM [inhibitor, partial curve, poor fit]"
14,O=C(CN1CCC(C(=O)c2cccc(Cl)c2)CC1)Nc1ccc(C(=O)O)cc1,inactive
15,CCC(=O)N1CCc2cc(S(=O)(=O)NC(Cc3ccccc3)C(=O)NCc3ccc(F)cc3)ccc21 (configuration not stated),inactive
16,COc1ccc(/C=N/NC(=O)c2nc(-c3ccccc3)cc(-c3ccccc3)n2)cc1,"inconclusive: 10 µM [inhibitor, partial curve, poor fit]"
17,O=C(O)c1ccccc1-c1ccccc1C(=O)NCc1ccccc1F,"inconclusive: 1.12 µM [inhibitor, single point]"
18,COc1ccc(Cl)cc1C(=O)Nc1ccc(S(N)(=O)=O)cc1,inactive
19,Cc1ccc(C)c(OCCC(=O)Nc2ccc3c(c2)OCO3)c1,"inconclusive: 1 µM [inhibitor, partial curve, poor fit]"
20,CCc1ccc(NC(=O)c2cc3c(C)nc4ccccc4c3o2)cc1,"inconclusive: 3.16 µM [inhibitor, single point]"
21,Cc1ccc(-c2nnn(CC(=O)N3C(C)CCCC3C)n2)cc1 (configuration not stated),"inconclusive: 1.41 µM [activator, partial curve, poor fit]"

# Nothing new here: an excerpt of the list.
row,Compound,Potency
15,CCC(=O)N1CCc2cc(S(=O)(=O)NC(Cc3ccccc3)C(=O)NCc3ccc(F)cc3)ccc21 (configuration not stated),inactive
16,COc1ccc(/C=N/NC(=O)c2nc(-c3ccccc3)cc(-c3ccccc3)n2)cc1,"inconclusive: 10 µM [inhibitor, partial curve, poor fit]"

# (next part)

row,Compound,Potency
1,O=C(COc1ncnc2ccccc12)N1CCN(S(=O)(=O)c2ccccc2)CC1,"inconclusive: 6.51 µM [activator, single point]"
2,O=C(Cc1cccs1)Nc1cc(SCCO)cc([N+](=O)[O-])c1,"inconclusive: 2.82 µM [activator, single point]"
3,Cn1cc(CN2CCC(C(O)c3cccs3)CC2)c(-c2cccc(Cl)c2)n1 (configuration not stated),"inconclusive: 22.4 µM [inhibitor, partial curve, poor fit]"
4,COc1ccc(-n2nc3cc(C)c(NC(=O)c4ccc(C)cc4C)cc3n2)cc1Cl,inactive
5,O=C(Nc1ccccc1N1CCCC1)C1CCN(S(=O)(=O)c2cccc(C(F)(F)F)c2)CC1,"inconclusive: 20 µM [inhibitor, partial curve, poor fit]"
6,O=C(NCC(c1ccco1)N1CCCC1)c1cccc(NS(=O)(=O)c2ccccc2)c1 (configuration not stated),inactive
7,CCN1C(=O)N(C)[C@@H](c2ccccc2)C(C(C)=O)=C1C,inactive
8,Cc1ccccc1C(=O)Nc1ccc(Cl)cn1,"inconclusive: 0.73 µM [activator, partial curve, poor fit]"
9,Cc1ccc(-n2nnnc2SCC(=O)N2CCc3ccccc3C2)c(C)c1,inactive
10,Cc1ccc2oc(C(=O)Nc3sc4c(c3C(=O)NCc3ccccc3)CCCC4)cc(=O)c2c1,inactive
11,Fc1ccc(OCc2nnc(SCCN3CCOCC3)o2)cc1,"inconclusive: 20 µM [inhibitor, single point]"
12,O=C(c1ccc2c(=O)n(-c3ccccc3)c(=O)[nH]c2c1)N1CCN(c2ccc(F)cc2)CC1,"inconclusive: 29.1 µM [inhibitor, single point]"
13,CC1=C(C)CC(c2ccccc2)C(C(=O)c2ccccc2O)C1 (configuration not stated),"inconclusive: 0.596 µM [inhibitor, partial curve, poor fit]"
14,COc1ccc(/C=C/C(=O)OCC(=O)Nc2cccc(S(=O)(=O)NC3=NCCCCC3)c2)cc1,"inconclusive: 2.51 µM [activator, full curve]"
15,O=C(N/N=C/c1c(O)ccc2ccccc12)c1cccc(C(F)(F)F)c1,active: 2.59 µM
16,CCOC(=O)CN1C(=O)C(CC)Oc2ccccc21 (configuration not stated),inactive
17,COc1cccc(C(=O)Nc2ccc(F)c(F)c2F)c1,"inconclusive: 11.2 µM [inhibitor, partial curve, poor fit]"
18,CCCOc1ccc2c3c(c(=O)oc2c1)CCCC3,"inconclusive: 35.5 µM [inhibitor, single point]"
19,Cc1sc2ncnc(NCC(O)c3ccccc3)c2c1C (configuration not stated),"inconclusive: 10.3 µM [inhibitor, partial curve]"
20,CCOC(=O)c1ccc(N2CCN(c3ccccc3F)CC2)c(NC(=O)Nc2ccccc2)c1,"inconclusive: 7.08 µM [inhibitor, partial curve, poor fit]"
21,Cc1noc(C)c1COc1ccc(C(=O)N2CCN(c3ccccc3F)CC2)cc1,"inconclusive: 11.2 µM [activator, partial curve, poor fit]"
